PubChem BioAssay AID504744 – Drosophila RNAi Screening Center, 2011
The deposit covers about 23,000 reagents; below is a random part of those with a known target gene and a result. Of all reagents, 98 (0.43%) got an active call. 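Only hit calls are given; the phospho-dAkt signals, z-scores and hit direction were not deposited.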

Assay: 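Uncover factors, including feedback loops, that control dAkt activation in fly cells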 (primary screen)
Cell system: Drosophila Kc167 cells
Knock-down reagent: long dsRNA against Drosophila genes, 250 ng dsRNA per well of a 384-well plate
Duration: 3 days of knock-down, then overnight serum-free starvation before stimulation
Challenge: bovine insulin at 387 nM for 10 minutes after 12 h without serum
Read-out: 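In-cell antibody fluorescence for phospho-dAkt in each well over DNA-dye signal, with log2 residuals expressed as z-scores adjusted for cell count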
Active means: 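Under insulin, a gene counts as a hit if the average z-score of two replicates lies above 2.5 or below -2.5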

| gene | DRSC id | Call |
| --- | --- | --- |
| CG3368 | DRSC15485 | inactive |
| yata | DRSC15408 | inactive |
| mEFTu1 (mitochondrial translation elongation factor Tu 1) | DRSC06959 | inactive |
| trr (trithorax-related) | DRSC18845 | inactive |
| CG34427 | DRSC09978 | inactive |
| Atx2 (Ataxin-2) | DRSC15727 | inactive |
| l(2)k05911 (lethal (2) k05911) | DRSC02523 | inactive |
| CG2712 | DRSC18589 | inactive |
| IFT52 (Intraflagellar transport 52) | DRSC03271 | inactive |
| CG30271 | DRSC04170 | inactive |
| alka (alkaliphile) | DRSC06136 | inactive |
| CG3587 | DRSC18541 | inactive |
| CG3587 | DRSC21966 | inactive |
| salr (spalt-related) | DRSC03607 | inactive |
| PolrMT (RNA polymerase mitochondrial) | DRSC00660 | inactive |
| Coa7 (Cytochrome c oxidase assembly factor 7) | DRSC20967 | inactive |
| ClC-b (Chloride channel-b) | DRSC07220 | inactive |
| SmydA-8 (SET and MYND domain containing, arthropod-specific, member 8) | DRSC18797 | inactive |
| SmydA-8 (SET and MYND domain containing, arthropod-specific, member 8) | DRSC22064 | inactive |
| SmydA-8 (SET and MYND domain containing, arthropod-specific, member 8) | DRSC22263 | inactive |
| Nemp (Nuclear envelope integral membrane protein) | DRSC20206 | inactive |
| eIF3f2 (eukaryotic translation initiation factor 3 subunit f2) | DRSC04903 | inactive |
| CG6271 | DRSC16006 | inactive |
| app (approximated) | DRSC09159 | inactive |
| app (approximated) | DRSC10246 | inactive |
| app (approximated) | DRSC10526 | inactive |
| CG5776 | DRSC02891 | inactive |
| SCOT (Succinyl-CoA:3-ketoacid CoA transferase) | DRSC08186 | inactive |
| CNT2 (Concentrative nucleoside transporter 2) | DRSC07073 | inactive |
| Ccdc85 | DRSC00501 | inactive |
| CG7248 | DRSC10788 | inactive |
| Vps29 (Vacuolar protein sorting 29) | DRSC00666 | inactive |
| CG16879 (retired record) | DRSC01918 | inactive |
| CG16879 (retired record) | DRSC22849 | inactive |
| CG11155 | DRSC17184 | inactive |
| CG11155 | DRSC17205 | inactive |
| CG15537 | DRSC15073 | inactive |
| Xbp1 (X box binding protein-1) | DRSC04553 | inactive |
| Xbp1 (X box binding protein-1) | DRSC21624 | inactive |
| CG14864 | DRSC14987 | inactive |
| CG9626 | DRSC16525 | inactive |
| Sb (Stubble) | DRSC16851 | inactive |
| Vav (Vav guanine nucleotide exchange factor) | DRSC20384 | inactive |
| CG32832 | DRSC01562 | inactive |
| CG34129 | DRSC15960 | inactive |
| Or1a (Odorant receptor 1a) | DRSC18689 | inactive |

The list goes on, starting with the last 3 of the part before.
| gene | DRSC id | Call |
| --- | --- | --- |
| CG32832 | DRSC01562 | inactive |
| CG34129 | DRSC15960 | inactive |
| Or1a (Odorant receptor 1a) | DRSC18689 | inactive |
| CG11384 | DRSC18628 | inactive |
| CG15803 | DRSC15121 | inactive |
| Rpt3 (Regulatory particle triple-A ATPase 3) | DRSC20283 | inactive |
| c11.1 | DRSC18749 | inactive |
| Ns2 (Nucleostemin 2) | DRSC06993 | inactive |
| CG32262 | DRSC08165 | inactive |
| pths (porthos) | DRSC03171 | inactive |
| Trm1 (tRNA methyltransferase 1) | DRSC02951 | inactive |
| alpha-Est1 (alpha-Esterase-1) | DRSC12612 | inactive |
| bnb (bangles and beads) | DRSC20314 | inactive |
| CG1486 | DRSC20508 | inactive |
| 14-3-3zeta | DRSC05028 | inactive |
| Pka-C2 (Protein kinase, cAMP-dependent, catalytic subunit 2) | DRSC16790 | inactive |
| rumpel | DRSC18436 | inactive |
| Surf4 (Surfeit 4) | DRSC16875 | inactive |
| Atu (Another transcription unit) | DRSC12123 | inactive |
| DIP-zeta (Dpr-interacting protein zeta) | DRSC02203 | inactive |
| DIP-zeta (Dpr-interacting protein zeta) | DRSC02204 | inactive |
| DIP-zeta (Dpr-interacting protein zeta) | DRSC02205 | inactive |
| Z600 | DRSC11317 | inactive |
| Ubc2 (Ubiquitin conjugating enzyme 2) | DRSC01137 | inactive |
| Ubc2 (Ubiquitin conjugating enzyme 2) | DRSC03468 | inactive |
| r-cup (ryder cup) | DRSC20475 | inactive |
| CG14760 | DRSC06495 | inactive |
| Septin5 (Septin 5) | DRSC06843 | inactive |
| ana3 (anastral spindle 3) | DRSC06289 | inactive |
| CG9521 | DRSC20196 | inactive |
| CG7352 | DRSC16233 | inactive |
| CG9010 | DRSC07320 | inactive |
| Non3 (Novel nucleolar protein 3) | DRSC16359 | inactive |
| Pdzd8 (PDZ domain containing 8) | DRSC19355 | inactive |
| CG10863 | DRSC08145 | inactive |
| Cyp312a1 (Cytochrome P450 312a1) | DRSC11128 | inactive |
| CG30274 | DRSC04171 | inactive |
| CG13073 | DRSC09956 | inactive |
| Iswi (Imitation SWI) | DRSC07446 | inactive |
| CG42514 | DRSC10428 | inactive |
| ZIPIC (Zinc-finger protein interacting with CP190) | DRSC16349 | inactive |
| brv2 (brivido-2) | DRSC10226 | inactive |
| CG13018 | DRSC06274 | inactive |
| Gasp | DRSC12349 | inactive |
| CG9360 | DRSC20180 | inactive |
| Bacc (Bacchus) | DRSC00735 | inactive |
| Tsc1 | DRSC16890 | active |
| CG18528 | DRSC15340 | inactive |
| Nf-YB (Nuclear factor Y-box B) | DRSC02057 | inactive |
| Atg3 (Autophagy-related 3) | DRSC10736 | inactive |
| Atg3 (Autophagy-related 3) | DRSC21758 | inactive |
| mRpL28 (mitochondrial ribosomal protein L28) | DRSC02724 | inactive |
| cnc (cap-n-collar) | DRSC14676 | inactive |
| cnc (cap-n-collar) | DRSC15289 | inactive |
| cnc (cap-n-collar) | DRSC15600 | inactive |
| cnc (cap-n-collar) | DRSC15601 | inactive |
| CG15414 | DRSC00429 | inactive |
| CG15414 | DRSC22353 | inactive |
| CR11700 (retired record) | DRSC17794 | inactive |
| CG7296 | DRSC03042 | inactive |
| CG7296 | DRSC22343 | inactive |
| CG17177 | DRSC10257 | inactive |
| Gr8a (Gustatory receptor 8a) | DRSC18043 | inactive |
| CG44014 | DRSC14995 | inactive |
